{"sequences": {"note": "The chains behind the UniProt entries cited, without tags or fusion partners. Where a name states a change or a piece, a line headed by the entry shows the natural chain unless it says otherwise. Residues count along the entry.", "UniProt P78324, residues 31-504": "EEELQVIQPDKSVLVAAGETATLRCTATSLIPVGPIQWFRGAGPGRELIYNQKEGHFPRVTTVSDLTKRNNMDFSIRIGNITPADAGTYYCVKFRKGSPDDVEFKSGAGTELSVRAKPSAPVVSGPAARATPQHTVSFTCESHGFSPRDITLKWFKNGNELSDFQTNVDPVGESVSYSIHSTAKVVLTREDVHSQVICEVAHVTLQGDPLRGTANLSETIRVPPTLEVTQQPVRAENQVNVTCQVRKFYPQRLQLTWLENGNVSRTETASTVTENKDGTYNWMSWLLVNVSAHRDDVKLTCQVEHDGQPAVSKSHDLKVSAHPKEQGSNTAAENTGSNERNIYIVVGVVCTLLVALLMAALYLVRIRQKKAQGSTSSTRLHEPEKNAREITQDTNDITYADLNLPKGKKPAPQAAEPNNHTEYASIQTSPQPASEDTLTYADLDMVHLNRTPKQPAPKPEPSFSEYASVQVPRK", "UniProt Q9ESN6": "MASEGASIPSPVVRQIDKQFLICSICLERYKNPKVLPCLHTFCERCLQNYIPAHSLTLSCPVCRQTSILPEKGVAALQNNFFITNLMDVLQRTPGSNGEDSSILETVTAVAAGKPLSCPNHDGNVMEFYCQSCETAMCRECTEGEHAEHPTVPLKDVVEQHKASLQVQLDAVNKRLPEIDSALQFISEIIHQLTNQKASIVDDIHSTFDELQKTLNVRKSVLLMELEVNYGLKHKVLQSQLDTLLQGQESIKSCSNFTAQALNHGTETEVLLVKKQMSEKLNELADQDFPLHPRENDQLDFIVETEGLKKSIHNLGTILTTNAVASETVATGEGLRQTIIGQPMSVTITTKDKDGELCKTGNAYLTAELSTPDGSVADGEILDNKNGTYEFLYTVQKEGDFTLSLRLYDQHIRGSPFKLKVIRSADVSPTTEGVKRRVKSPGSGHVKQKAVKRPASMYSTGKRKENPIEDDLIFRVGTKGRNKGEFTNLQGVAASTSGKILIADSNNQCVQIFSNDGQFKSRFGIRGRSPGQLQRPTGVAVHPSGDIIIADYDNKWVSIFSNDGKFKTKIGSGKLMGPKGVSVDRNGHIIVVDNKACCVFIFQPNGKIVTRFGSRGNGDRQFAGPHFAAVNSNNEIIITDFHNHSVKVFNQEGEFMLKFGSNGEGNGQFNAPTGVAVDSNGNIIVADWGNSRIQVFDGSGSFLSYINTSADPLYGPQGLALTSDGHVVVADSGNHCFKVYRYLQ"}, "source": "paper PMC6380604", "biological_target": "FLAG-tagged human signal regulatory protein α (SIRPA) (human) (UniProt P78324)", "test": "co-IP", "note": "These are yes or no findings as the source states them, for the method shown. In cells and extracts the contact can be indirect. A result given as binding can be weak or reduced; the word gives no strength."}
{"substance": "TRIM2 NHL construct (NHL domain only), c-myc-tagged (from UniProt Q9ESN6) (domain or fragment)", "values": [{"measurement": "binding", "result": "binds"}]}
